Results are given in words; binding and its absence hold for the method and conditions named. Some results given as binding are weak or reduced against the parent protein; the word gives no strength.
Experiments:
[1] = target: HER2 domains I+II (His-tagged, supernatant of transfected CHO cells) (UniProt P04626); test: sandwich ELISA: antibody coated, domain construct supernatant, HRP anti-His-Tag detection
[2] = target: human ERBB2 (ELISA antigen of FIG. 3, poly-histidine tagged) (human) (UniProt P04626); test: ELISA, coated antigen, HRP-conjugated antibody, OD 450 nm

binding [1]: binds
binding [2]: binds
B1: Hersintuzumab (antibody, V domains shown)
VH: EVKLVESGGGLVKPGGSLRLSCATSGFSFSSYYMYWVRQAPGKRLEWVAYISSGSEIYYSDSVKGRFTISRDSAKNTLYLQMNSLRAEDTAVYYCARLGDDGMDVWGQGTTVTVSS
VL: DIVMTQSPSSLSASVGDRVTITCRASQNVRTAVAWFQQKPGKAPKALIYLASNRHTGVPDRFTGSGSGTEFTLTISNLQPEDFATYFCLQHNSYPLTFGGGTKVEIK
notes: also called humanized anti-HER2 antibody; humanized monoclonal anti-HER2 antibody

Reference: US20170066829A1 (published 2017)
